# Values quoted from earlier work in patent US11607407B2, “Dermal pharmaceutical compositions of 1-methyl-2′,6′-pipecoloxylidide and method of use” (priority 2010, dated 2023).
# Some results were stated once for a whole list of compounds, not compound by compound.
# System: PHN
# Settings: PHN patients; cited from earlier work
row,Structure (SMILES),effect size
1,NCC1(CC(=O)O)CCCCC1 [gabapentin],up to 0.75
2,COc1ccc2c3c1O[C@H]1C(=O)CC[C@@]4(O)[C@@H](C2)N(C)CC[C@]314 [oxycodone],up to 0.75
